# Literature values as cited in patent US20200405643A1, “DRUG COMPOSITIONS CONTAINING POROUS CARRIERS MADE BY THERMAL OR FUSION-BASED PROCESSES” (BOARD OF REGENTS, THE UNIVERSITY OF TEXAS SYSTEM, priority 2017, published 2020).
# Read-outs that look alike come from different tables or passages of the source.
structure (smiles),measurement,setting,value
COC(=O)C1=C(C)NC(C)=C(C(=O)OC)C1c1ccccc1[N+](=O)[O-] [Nifedipine],Solubility (37° C.),pH 1.2,10 μg/mL (pH 1.2)
same,Solubility (37° C.),pH 4,10 μg/mL (pH 4.0)
same,Solubility (37° C.),pH 6.8,10 μg/mL (pH 6.8)
